Laboratory results published in PMC7688343, “GDF6-CD99 Signaling Regulates Src and Ewing Sarcoma Growth” (Cell reports, 2020).
No constants are given. Whether binding was seen depends on the method and setting. In cells and extracts the contact can be indirect. Binding calls can cover weak binding; strength is not graded here. Sequences can lack the tags named with a protein.

Protein sequences, listed by entry. Tags and fused reporters are not part of them. Lines headed by an entry give the natural chain unless they say otherwise; changes in a name come on top.
UniProt Q6KF10: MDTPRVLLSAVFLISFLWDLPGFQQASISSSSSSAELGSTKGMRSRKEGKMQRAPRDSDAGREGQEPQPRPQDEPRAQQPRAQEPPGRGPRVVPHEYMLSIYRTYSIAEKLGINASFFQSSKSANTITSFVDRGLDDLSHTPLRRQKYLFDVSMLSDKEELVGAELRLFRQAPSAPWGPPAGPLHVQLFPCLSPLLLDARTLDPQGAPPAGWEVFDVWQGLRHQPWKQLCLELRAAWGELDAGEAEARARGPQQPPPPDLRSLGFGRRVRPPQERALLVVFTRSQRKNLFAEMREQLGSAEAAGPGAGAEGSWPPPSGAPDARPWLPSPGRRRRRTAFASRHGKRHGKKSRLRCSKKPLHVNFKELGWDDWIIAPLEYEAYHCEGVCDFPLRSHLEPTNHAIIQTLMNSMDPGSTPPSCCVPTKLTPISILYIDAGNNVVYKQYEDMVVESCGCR

Target: T1, C-terminally FLAG-tagged human CD99 (human) (UniProt P14209)
T1 sequence: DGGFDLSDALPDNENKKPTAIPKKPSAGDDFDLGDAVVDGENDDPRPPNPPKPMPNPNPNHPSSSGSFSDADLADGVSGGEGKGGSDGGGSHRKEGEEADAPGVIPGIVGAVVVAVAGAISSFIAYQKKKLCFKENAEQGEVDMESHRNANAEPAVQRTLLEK
Test: co-IP; C-terminally FLAG-tagged CD99 and/or CD99L2 co-transfected with GDF6 prodomain (wild type, A249E or L289P) in 293T cells; anti-FLAG immunoprecipitation, immunoblotting

Substance | binding
GDF6 A249E prodomain (from UniProt Q6KF10) (domain or fragment) | binds
GDF6 L289P prodomain (from UniProt Q6KF10) (domain or fragment) | binds
